Our source for the AC50 values is PubChem BioAssay AID493014 (National Center for Advancing Translational Sciences (NCATS), 2011).

The other results are listed elsewhere or left out. These are further read-outs of the screen, such as a control signal, another cell line or another target. No call is given for them. The list favours compounds with an active or inconclusive main result. The note in brackets gives the kind of curve behind each potency; many fits are weak.

This assay can be described thus: qHTS Assay to Find Inhibitors of Chronic Active B-Cell Receptor Signaling. The conditions noted are these: ABC-DLBCL IkBa-CBG/CBR reporter, luminescence ratio (green luciferase fused to IkBa over red control in TMD8 lymphoma cells), 4 h. An outline of the steps:
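TMD8 ABC-DLBCL cells carrying doxycycline-inducible green luciferase fused to IkappaBalpha plus unfused red luciferase were exposed to compounds (up to 46 uM) for 4 hrs at 37C. Activity came from the overlap-corrected green/red luminescence ratio.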
(In qHTS, concentration-response curves come from the screen itself.)

Setting [1] is: measured here: CBR red luminescence, cell number.
The mark [2] stands for this setting: measured here: IkBa-CBG green luminescence.

In general, AC50 refers to the concentration giving half of the maximal activity seen. Consider `CN(CC(=O)Nc1ccc(F)cc1)C(=O)CSc1nncs1`, for which the concentration at half-maximal activity (AC50) under setting [1] is 1.78 µM [falling, partial curve].

`CCOC(=O)C(=O)/C(C#N)=C/Nc1ccccc1`: under setting [1], the AC50 was 6.51 µM [falling, single point]. Regarding `O=C(Nc1ccc(F)cc1)N(Cc1ccco1)Cc1cc2cc3c(cc2[nH]c1=O)OCO3`, the AC50 by setting is: under setting [1], 13 µM [falling, partial curve]; under setting [2], 9.2 µM [rising, partial curve, poor fit]. In the case of `COc1ccc(OCC(=O)Nc2sc3c(c2C(=O)NCC2CCCO2)CCC3)cc1` (configuration not stated), under setting [1], the AC50 is 17.8 µM [rising, partial curve, poor fit]. Take `CCOC(=O)N1CCN(C(=O)c2ccc(C#CC3(O)CCCCC3)cc2)CC1`: the AC50 under setting [1] is 18.4 µM [rising, single point].

For the molecule `O=C(N/N=C/c1cccs1)c1ccc2ccccc2c1`, the AC50 under setting [1] was 15.8 µM [falling, single point]. The same measure, in the same setting: for `NS(=O)(=O)c1cccc(NC(=O)CSc2ncnc3ccccc23)c1` the value was 11.2 µM [falling, partial curve].

`CC(=C/c1ccccc1)/C=N/n1c(C)n[nH]c1=S`: the AC50 under setting [1] is 35.5 µM [falling, single point] and the AC50 under setting [2] was 28.2 µM [falling, single point]. For the molecule `COc1ccc(-c2coc3cc(O)cc(O)c3c2=O)cc1OC`, the AC50 under setting [1] was 6.31 µM [rising, partial curve, poor fit].

On to `CC(=O)Oc1c(-c2ccco2)oc2ccccc2c1=O`, for which the AC50 under setting [1] is 12.6 µM [falling, partial curve].

In the case of `CCOc1ccc(-c2nc3ccccc3c(=O)o2)cc1`, the AC50 under setting [1] was 4.47 µM [falling, partial curve].

As to `CCCC1(C(=O)O)NC(c2cccc(OC)c2O)C2C(=O)N(c3ccccc3)C(=O)C21` (configuration not stated), the AC50 under setting [1] was 20.6 µM [falling, single point]. Regarding `O=C(CN1C(=O)c2ccccc2C1=O)OCC(=O)c1ccccc1`, the AC50 under setting [1] is 14.6 µM [rising, partial curve, poor fit]. On to `COc1ccc(OC)c(CNC(=O)CCc2cn(C)c3ccccc23)c1`, for which the AC50 under setting [1] is 15.8 µM [falling, single point]. The same measure, in the same setting: with `Cc1ccc(C(=O)NNC(=O)C(C)Oc2ccc3ccccc3c2)o1` (configuration not stated) the figure was 23.1 µM [rising, partial curve, poor fit]; with `COc1cccc2cc(C(=O)OCC(=O)N3CC(C)OC(C)C3)c(=O)oc12` (configuration not stated), 0.461 µM [falling, full curve, poor fit]; with `O=C(N/N=C/c1ccc(OCc2ccccc2)cc1)c1ccc(O)cc1`, 2.24 µM [falling, partial curve, poor fit]. Same read-out and setting: with `CS(=O)(=O)Nc1ccc(C(=O)Nc2ccc3ccccc3c2)cc1` the figure was 17.8 µM [falling, single point].

On to `O=C(NCC1CCCO1)C(=Cc1cccc([N+](=O)[O-])c1)C(=O)NCC1CCCO1` (configuration not stated), for which the AC50 under setting [1] was 18.4 µM [falling, partial curve]. Take `CCOC(=O)c1c(C)[nH]c(C(=O)OCC(=O)Nc2ccc(OCC)cc2)c1C`: under setting [1], the AC50 is 10.3 µM [falling, single point]. Regarding `C#CCNC(=O)C1=C[C@H](c2coc3ccccc3c2=O)C[C@H](OCc2ccc(CO)cc2)O1`, the AC50 under setting [1] is 35.5 µM [falling, single point].

As for `Cc1cc(C)c(C#N)c(SCC(=O)N(CCC#N)c2ccc3c(c2)OCCO3)n1`, the AC50 under setting [1] was 6.51 µM [rising, full curve, poor fit]. As to `C[C@H]1CN=C(Nc2ccccc2)N1CCCC1CCCCC1`, the AC50 under setting [1] is 20 µM [falling, partial curve, poor fit]. The same measure, in the same setting: for `Cc1ccc(NC(=O)COC(=O)CCc2c(C)nc3ncnn3c2C)cc1C` the value was 0.103 µM [rising, full curve, poor fit].

As to `CSc1ccccc1NC(=O)Nc1ccccc1`, the AC50 under setting [1] is 7.31 µM [falling, partial curve, poor fit]. On the same count and under the same terms, for `COc1cc(NC(=O)CN(c2cc(C)cc(C)c2)S(=O)(=O)c2c(C)[nH]c(=O)[nH]c2=O)cc(OC)c1` the value was 35.5 µM [falling, partial curve, poor fit]; for `Cc1ccc(S(=O)(=O)/N=C2\C=C(Nc3cccc(C(=O)O)c3)C(=O)c3ccccc32)cc1`, 5.01 µM [falling, full curve, poor fit]. The same measure, in the same setting: for `O=C(Nc1nc2c(Br)cccc2s1)C1CC1` the value was 20 µM [falling, partial curve, poor fit]; for `COc1cccc(NC(=O)COC(=O)C2CC(=O)N(c3ccc(C)cc3)C2)c1` (configuration not stated), 3.26 µM [rising, full curve]. As to `COc1ccc([C@H]2CC(=O)C=C(c3cccc4c3Oc3ccccc3S4)C2)cc1OC`, the AC50 runs as follows: under setting [1], 23.1 µM [falling, single point]; under setting [2], 7.31 µM [rising, partial curve, poor fit]. In the case of `CCOC(=O)CNC(=O)c1ccc(OCC(F)(F)F)cc1`, the AC50 under setting [1] is 0.631 µM [falling, partial curve, poor fit].

In the case of `O=C(Nc1ccc2nc(-c3ccccc3)[nH]c2c1)c1cccs1`, under setting [1], the AC50 was 23.1 µM [falling, partial curve, poor fit].

Take `COC(=O)c1cc(OC)c(OC)cc1NC(=O)c1ccc(OC)cc1`: the AC50 under setting [1] is 3.98 µM [rising, partial curve, poor fit]. Same read-out and setting: with `Nc1nc(SCC(=O)N2CCCc3ccccc32)n(-c2ccccc2)n1` the figure was 32.6 µM [falling, single point]. In the case of `COc1ccc(NC(=S)Nc2ccccc2)cc1`, under setting [1], the AC50 was 2.82 µM [rising, partial curve].

Take `Nc1cc(N2CCCCC2)c([N+](=O)[O-])cc1Cl`: the AC50 under setting [1] is 4.11 µM [rising, full curve]. For the molecule `O=C(CSCc1c(Cl)cccc1Cl)Nc1ccc2c(c1)OCCO2`, the AC50 under setting [1] is 18.4 µM [falling, single point]. Consider `OC(c1ccccc1)(c1ccc(F)cc1)C(c1ccccc1)N1CCOCC1` (configuration not stated), for which, under setting [2], the AC50 is 28.2 µM [rising, partial curve, poor fit]. As to `CNc1sc(C(=O)c2ccccc2F)c(N)c1-c1nc2ccccc2s1`, the AC50 under setting [2] is 25.9 µM [falling, single point]. Take `COc1cc(N=Nc2c(C)n(C)n(-c3ccccc3)c2=O)ccc1N`: under setting [1], the AC50 was 11.2 µM [falling, partial curve]. On the same count and under the same terms, for `N#CC1=C(N)N2C(=C(C#N)C1c1ccccc1)Sc1ccccc12` (configuration not stated) the value was 0.58 µM [rising, full curve, poor fit]; for `CC1CCCC(C)N1CC(O)COCc1ccccc1F` (configuration not stated), 35.5 µM [rising, partial curve, poor fit]; for `CC(C)c1ccc(NC(=O)c2sccc2-n2cccc2)cc1`, 12.6 µM [rising, partial curve]. Same read-out and setting: with `CCCc1nnc(NC(=O)C(CC)OC(=O)c2cc(C)nc3ccccc23)s1` (configuration not stated) the figure was 35.5 µM [falling, single point]; with `Cc1nn(-c2ncc(C(F)(F)F)cc2Cl)c(=O)n1-c1c(F)cccc1F`, 3.98 µM [rising, single point]; with `CC(C)(C)OC(=O)CNC(=O)c1[nH]cnc1C(=O)NCCCCCNC(=O)OC(C)(C)C`, 35.5 µM [falling, single point]. Take `CC(C)CCn1c(SCc2cccc(F)c2)nc2ccsc2c1=O`: the AC50 under setting [1] was 35.5 µM [rising, single point]. Same read-out and setting: for `Cc1nc(SCc2ccc(Cl)cc2)ncc1C(=O)O` the value was 7.08 µM [falling, partial curve]; for `COc1cccc(NC(=O)CN2C(=O)COc3ccc(S(=O)(=O)N4CCC(C)CC4)cc32)c1`, 25.1 µM [falling, single point]; for `Cc1ccccc1OCCNC(=O)/C=C/c1ccccc1`, 29.1 µM [rising, single point]. Same read-out and setting: for `COc1ccc(C(=O)NC(=S)Nc2ccccc2N2CCOCC2)cc1[N+](=O)[O-]` the value was 0.058 µM [rising, full curve, poor fit]; for `Cc1ccc(N2CC(C(=O)NCc3ccco3)CC2=O)cc1Cl` (configuration not stated), 5.62 µM [falling, partial curve]; for `CCOC(=O)c1ccc(NC(=O)N2CCN(Cc3ccccc3)CC2)cc1`, 0.282 µM [rising, partial curve, poor fit]. The same measure, in the same setting: for `COc1ccccc1CN(C)C(=O)C(c1ccccc1)c1ccccc1` the value was 15.8 µM [falling, single point]; for `O=C(CCl)N(c1ccccc1)C1CCS(=O)(=O)C1` (configuration not stated), 29.1 µM [falling, single point]. Take `COC(=O)c1sc(-c2ccc(C(C)(C)C)cc2)cc1NC(=O)c1ccccc1C(=O)O`: the AC50 under setting [1] was 11.2 µM [rising, partial curve, poor fit]. For the molecule `CC(O)[C@H]1CNC(=S)N1CCc1cccc(F)c1` (some centres not stated), the AC50 under setting [1] is 5.01 µM [rising, single point]. On the same count and under the same terms, for `COc1ccc2sc3ccccc3c(=O)c2c1OC` the value was 0.316 µM [rising, full curve, poor fit]; for `O=[N+]([O-])c1ccc(Oc2ccc(OCc3ccccc3)cc2)nc1`, 5.62 µM [rising, single point]. On the same count and under the same terms, with `COc1cccc(C(=O)OCC(=O)Nc2nnc(-c3ccccc3)o2)c1` the figure was 16.4 µM [falling, partial curve]; with `Cc1ccc(Nc2nnc(SCC(=O)Nc3cccc(S(=O)(=O)N4CCCCC4)c3)s2)cc1`, 1.84 µM [falling, full curve, poor fit]. Regarding `COc1ccc(C(=O)Nc2sc3c(c2C(=O)O)CC(C)(C)OC3)cc1`, the AC50 under setting [1] was 23.1 µM [falling, single point]. In the case of `COc1ccc(C(=S)N2CCCC2)cc1Br`, the AC50 under setting [1] is 35.5 µM [rising, single point]. Still for that read-out and setting: with `Cc1cccc(NC(=O)c2cc3c(s2)-c2c(C)cccc2OC3)n1` the figure was 0.141 µM [falling, full curve, poor fit].
